Results are given in words; binding and its absence hold for the method and conditions named. Some results given as binding are weak or reduced against the parent protein; the word gives no strength.
Molecular target: PCM1 LIR peptide (pericentriolar material 1 protein residues 1954-1968), N-terminally biotinylated (UniProt Q15154)
Experiment: BLI

The chains behind the UniProt entries cited, without tags or fusion partners. Where a name states a change or a piece, a line headed by the entry shows the natural chain unless it says otherwise.
UniProt Q15154: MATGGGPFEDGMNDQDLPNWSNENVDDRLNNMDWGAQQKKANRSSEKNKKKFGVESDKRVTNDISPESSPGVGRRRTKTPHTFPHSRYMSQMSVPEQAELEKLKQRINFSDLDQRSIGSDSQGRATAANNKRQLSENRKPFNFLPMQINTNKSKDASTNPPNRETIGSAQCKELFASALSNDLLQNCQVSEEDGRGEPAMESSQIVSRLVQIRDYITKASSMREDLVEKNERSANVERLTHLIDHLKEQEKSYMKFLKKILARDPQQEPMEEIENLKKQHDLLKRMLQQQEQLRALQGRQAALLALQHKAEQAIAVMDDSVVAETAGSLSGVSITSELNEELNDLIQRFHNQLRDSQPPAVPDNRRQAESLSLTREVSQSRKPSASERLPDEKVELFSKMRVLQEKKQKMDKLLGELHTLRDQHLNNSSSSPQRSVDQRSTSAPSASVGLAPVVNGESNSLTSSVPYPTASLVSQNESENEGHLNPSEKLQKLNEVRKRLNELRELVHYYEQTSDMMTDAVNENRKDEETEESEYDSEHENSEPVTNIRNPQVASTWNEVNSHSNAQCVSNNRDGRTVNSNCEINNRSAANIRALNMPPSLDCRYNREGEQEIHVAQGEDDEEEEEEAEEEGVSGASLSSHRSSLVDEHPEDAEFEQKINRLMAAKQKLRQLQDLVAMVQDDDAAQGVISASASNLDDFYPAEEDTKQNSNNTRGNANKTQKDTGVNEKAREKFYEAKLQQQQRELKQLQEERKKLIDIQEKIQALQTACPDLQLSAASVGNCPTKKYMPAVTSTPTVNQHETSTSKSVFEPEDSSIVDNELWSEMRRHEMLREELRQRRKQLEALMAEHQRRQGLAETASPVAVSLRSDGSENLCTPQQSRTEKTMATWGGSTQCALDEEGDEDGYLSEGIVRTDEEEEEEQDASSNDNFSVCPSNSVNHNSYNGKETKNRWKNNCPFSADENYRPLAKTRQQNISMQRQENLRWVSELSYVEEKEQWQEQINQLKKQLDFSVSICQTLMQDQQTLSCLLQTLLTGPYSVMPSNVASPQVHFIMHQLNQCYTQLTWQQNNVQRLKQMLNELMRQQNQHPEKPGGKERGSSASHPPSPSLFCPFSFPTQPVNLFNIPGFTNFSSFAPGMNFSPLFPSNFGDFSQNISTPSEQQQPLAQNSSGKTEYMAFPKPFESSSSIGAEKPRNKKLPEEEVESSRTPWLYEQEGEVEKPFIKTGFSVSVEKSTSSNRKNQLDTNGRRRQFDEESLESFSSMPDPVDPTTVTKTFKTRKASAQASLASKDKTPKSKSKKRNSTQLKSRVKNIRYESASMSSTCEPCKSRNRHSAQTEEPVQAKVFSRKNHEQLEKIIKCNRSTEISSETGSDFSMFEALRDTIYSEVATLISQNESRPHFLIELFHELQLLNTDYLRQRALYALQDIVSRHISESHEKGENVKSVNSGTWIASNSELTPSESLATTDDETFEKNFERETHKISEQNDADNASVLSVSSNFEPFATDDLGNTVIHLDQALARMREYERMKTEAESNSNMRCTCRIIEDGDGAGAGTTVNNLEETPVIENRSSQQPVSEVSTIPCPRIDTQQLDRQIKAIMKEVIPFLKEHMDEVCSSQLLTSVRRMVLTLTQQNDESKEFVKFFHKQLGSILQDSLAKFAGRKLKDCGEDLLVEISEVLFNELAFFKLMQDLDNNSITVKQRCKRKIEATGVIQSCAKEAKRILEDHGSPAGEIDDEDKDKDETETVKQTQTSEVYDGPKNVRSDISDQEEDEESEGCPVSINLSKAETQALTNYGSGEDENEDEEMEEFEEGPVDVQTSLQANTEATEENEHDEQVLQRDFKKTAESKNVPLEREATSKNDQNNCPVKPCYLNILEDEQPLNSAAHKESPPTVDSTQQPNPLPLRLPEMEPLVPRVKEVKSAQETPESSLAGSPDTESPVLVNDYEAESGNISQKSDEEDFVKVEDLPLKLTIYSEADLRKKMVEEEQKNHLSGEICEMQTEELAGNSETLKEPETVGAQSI
UniProt P60520: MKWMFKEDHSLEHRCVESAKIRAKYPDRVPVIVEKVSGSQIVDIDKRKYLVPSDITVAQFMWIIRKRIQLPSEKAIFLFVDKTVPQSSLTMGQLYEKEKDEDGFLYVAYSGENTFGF

Row | binding | Substance
1 | binds | GABARAPL2 (from UniProt P60520 1-117)
2 | binds | LC3A (from UniProt Q9H492 1-121)

Source: doi:10.1101/2024.07.10.602929
